Positions count from the first letter of the chain named. For at least one entry, the source does not settle the construct or the ends of the probe. For part of these data: Weaker means in comparison with the reference protein, sequence or condition of that experiment. For part of these data: At least one verdict was read from the data and is not stated in words by the source. For part of these data: Where a protein sequence is shown, tags need not be part of it.
Assays:
Assay in all cases: EMSA
Settings in all cases: LightShift Chemiluminescent EMSA Kit (Thermo) per manufacturer; pH and temperature not stated; recombinant protein; label: 5'-biotin
MdHB1 (Malus domestica) = system: MdHB1 (Malus domestica)
MdHB2 (Malus domestica) = target: T1, MdHB2 (Malus domestica) (UniProt I1ZHV9)
T1 sequence (looked up, limits assumed): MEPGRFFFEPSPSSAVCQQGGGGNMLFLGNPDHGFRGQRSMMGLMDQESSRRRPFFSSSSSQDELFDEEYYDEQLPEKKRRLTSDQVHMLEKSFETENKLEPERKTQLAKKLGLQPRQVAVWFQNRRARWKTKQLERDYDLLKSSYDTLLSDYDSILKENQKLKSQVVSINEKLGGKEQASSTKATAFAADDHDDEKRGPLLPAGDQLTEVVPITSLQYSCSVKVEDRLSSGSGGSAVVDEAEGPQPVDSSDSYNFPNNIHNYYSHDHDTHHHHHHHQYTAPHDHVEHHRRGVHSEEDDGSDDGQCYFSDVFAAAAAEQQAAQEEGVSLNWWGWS

[1] = target: T2, MdHB2-4A T84A,S85A,T97A,T133A (Malus domestica) (UniProt I1ZHV9)
T2 sequence (looked up, limits assumed): T1 sequence (looked up, limits assumed) with T83A, S84A, T96A, T132A

[2] = system: MdHB1-3A T84A,T97A,T133A (Malus domestica)

Sequence | binding result (MdHB1 (Malus domestica)) | binding result (MdHB2 (Malus domestica)) | binding result [1] | binding result [2]
AAATAAGAAAAATTATGAATATTGTGTTCCAAACATCTTAAGAGGCGCA (double strand) [EMSA-E4 (MdACO1 promoter)] | binds | binds | binds more weakly | binds more weakly
CATCTCAGTCTTTTTCTCCACCCACCACC (double strand) [EMSA-E6 (MdACO1 promoter)] | binds | binds | binds more weakly | binds more weakly
TAATAGTGTATTATTTTGCTTTACCGTCTACAATTACCAAATTTGGAAAT (double strand) [EMSA-E1 (MdACO1 promoter)] | binds | binds | binds more weakly | binds more weakly
